Reference: PMC3792862, “Structure of UreG/UreF/UreH Complex Reveals How Urease Accessory Proteins Facilitate Maturation of Helicobacter pylori Urease” (PLoS Biology, 2013)
No constants are given. Whether binding was seen depends on the method and setting. For part of these data: In cells and extracts the contact can be indirect. Some entries that bind do so weakly or less than the wild type.

Chains of the proteins cited; added tags and fusions are not shown.
UniProt Q09065: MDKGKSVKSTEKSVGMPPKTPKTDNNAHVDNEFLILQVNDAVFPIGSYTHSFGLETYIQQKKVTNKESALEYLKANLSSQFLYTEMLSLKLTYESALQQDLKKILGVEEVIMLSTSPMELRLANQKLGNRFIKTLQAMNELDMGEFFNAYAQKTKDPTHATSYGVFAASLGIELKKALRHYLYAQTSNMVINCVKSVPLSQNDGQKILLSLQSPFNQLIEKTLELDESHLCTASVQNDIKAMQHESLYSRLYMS

Assays:
[1] = molecular target: UreG(C66A) (Helicobacter pylori) (UniProt Q09066); test: SEC-MALS; SEC/SLS; 40 µM UreG or variant with 0.5 mM nickel and 1 mM GTP; Superdex 200, phosphate-buffered saline; both purified
[2] = molecular target: UreG(H68A) (Helicobacter pylori) (UniProt Q09066); test: as above
[3] = molecular target: HisGST-UreF (Helicobacter pylori) (UniProt Q09065); test: pull-down; GST pull-down; cells expressing UreG and cells expressing HisGST-UreF/UreH or the variant mixed and sonicated together; cleared lysate on GST SpinTrap, 30 min at 4°C; buffer C (20 mM Tris pH 7.5, 200 mM NaCl, 1 mM TCEP); eluted with 10 mM glutathione; SDS-PAGE

## UreG(C66A) (from UniProt Q09066 1-199)
[1]
  binding: no binding (tested: 40 µM)

## UreG(H68A) (from UniProt Q09066 1-199)
[2]
  binding: no binding (tested: 40 µM)

B1: UreH (protein, UniProt Q09067 1-265)
chain: MNTYAQESKLRLKTKIGADGRCVIEDNFFTPPFKLMAPFYPKDDLAEIMLLAVSPGMMRGDAQDVQLNIGPNCKLRITSQSFEKIHNTEDGFASRDMHIVVGENAFLDFAPFPLIPFENAHFKGNTTISLRSSSQLLYSEIIVAGRVARNELFKFNRLHTKISILQDEKPIYYDNTILDPKTTDLNNMCMFDGYTHYLNLVLVNCPIELSGVRECIEESEGVDGAVSETASSHLCVKALAKGSEPLLHLREKIARLVTQTTTQKV
[3]
  binding: binds
